Data as given in PubChem BioAssay AID686943 (Drosophila RNAi Screening Center, 2013)

- Screen: 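Search across the genome for regulators of signalling from receptor tyrosine kinase to ERK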 (primary screen)
- System: Drosophila S2R+ haemocyte-like cells expressing YFP-tagged ERK (Rolled)
- Knock-down reagent: long dsRNA against Drosophila genes
- Conditions: insulin stimulation versus unstimulated cells; dose and duration not given
- Read-out: 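Antibody staining for doubly phosphorylated ERK divided by ERK-YFP signal, as plate z-scores, in insulin-treated and untreated cells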
- Reading the numbers: replicate 1, z-score of dpERK with insulin: higher = more active ERK per ERK-YFP after insulin
In all, the deposit lists about 23,000 reagents; shown is a random part of those that have a named target and a result. 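Extra replicates exist only for a retested subset of genes; insulin dose and duration not given; both raised and lowered dpERK matter.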 The numbers tell different reagents against one gene apart. A plus sign joins genes that one reagent is predicted to hit. Further read-outs or replicates are left out here. Reagent sequences are not shown. Not given: the amount of reagent, the time to read-out.

replicate 1, z-score of dpERK with insulin, by target gene and reagent
Gr36a: #1 -0.25
Eig71Eb: #1 -0.14
IRSp53: #1 -0.83
Mfap1: #1 1.85
CG31556 (retired record): #1 1.3; #2 0.27
CG32988: #1 1
MtnA: #1 0.48
Sh: #1 -3.48; #2 1.13; #3 0.98; #4 0.89; #5 0.71
CG12116: #1 0.29
Rpn8: #1 -2.55
Naa15-16: #1 3.07; #2 -0.28
CG33255 (retired record) + CR42842 + hpRNA:CR32205 + 1 more: #1 0.49
dob: #1 0.1
dy: #1 0.76
CG15186: #1 0.05
CG7251: #1 -0.75
snoRNA:Me28S-C3227a + snoRNA:Me18S-A1061 + snoRNA:Me28S-C3227b + 7 more: #1 0.44

Reprinted from the listing for reference:
replicate 1, z-score of dpERK with insulin, by target gene and reagent
Eig71Eb: #1 -0.14
IRSp53: #1 -0.83
